The values that follow come from publication doi:10.1101/2024.03.04.583415.

Amino acid sequences for entries named in this document (tags omitted).
UniProt Q96KQ7: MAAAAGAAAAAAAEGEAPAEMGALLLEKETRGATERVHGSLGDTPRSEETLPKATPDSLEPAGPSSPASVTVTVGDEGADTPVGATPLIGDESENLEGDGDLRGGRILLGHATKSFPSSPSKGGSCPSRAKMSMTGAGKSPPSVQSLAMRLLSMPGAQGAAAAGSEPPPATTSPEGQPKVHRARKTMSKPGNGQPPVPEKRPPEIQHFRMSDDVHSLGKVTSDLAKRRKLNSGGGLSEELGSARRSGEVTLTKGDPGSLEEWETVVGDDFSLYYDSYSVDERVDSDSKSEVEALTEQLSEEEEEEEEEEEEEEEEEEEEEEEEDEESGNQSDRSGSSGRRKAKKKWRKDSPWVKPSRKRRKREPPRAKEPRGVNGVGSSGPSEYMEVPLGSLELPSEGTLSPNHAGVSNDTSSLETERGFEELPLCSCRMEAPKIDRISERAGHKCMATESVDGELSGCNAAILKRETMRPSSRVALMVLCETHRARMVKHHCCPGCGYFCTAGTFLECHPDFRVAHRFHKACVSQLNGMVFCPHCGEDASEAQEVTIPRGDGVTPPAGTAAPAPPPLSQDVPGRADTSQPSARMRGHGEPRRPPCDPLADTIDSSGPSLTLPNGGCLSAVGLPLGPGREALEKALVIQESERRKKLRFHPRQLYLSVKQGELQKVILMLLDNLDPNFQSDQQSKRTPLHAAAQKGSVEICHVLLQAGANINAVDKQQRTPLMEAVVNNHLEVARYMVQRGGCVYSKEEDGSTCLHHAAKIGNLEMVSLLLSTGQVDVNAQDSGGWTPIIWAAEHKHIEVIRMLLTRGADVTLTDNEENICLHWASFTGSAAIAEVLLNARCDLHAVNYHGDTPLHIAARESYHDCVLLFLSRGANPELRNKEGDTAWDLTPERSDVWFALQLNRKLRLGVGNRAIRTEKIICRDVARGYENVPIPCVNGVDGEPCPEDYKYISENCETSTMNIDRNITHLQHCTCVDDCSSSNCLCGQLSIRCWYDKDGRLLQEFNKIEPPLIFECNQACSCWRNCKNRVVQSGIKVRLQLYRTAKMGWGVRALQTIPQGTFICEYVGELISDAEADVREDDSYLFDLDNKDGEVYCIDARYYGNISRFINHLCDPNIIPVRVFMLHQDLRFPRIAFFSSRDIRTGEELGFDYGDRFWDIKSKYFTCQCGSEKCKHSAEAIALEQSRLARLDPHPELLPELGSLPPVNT

No constants are given. Whether binding was seen depends on the method and setting. Binding seen in cells or lysates may run through a third protein. These calls come from enrichment with a bait or labelling near it, and not all partners need be listed.

In the assay the target is histone methyltransferase G9a (human (endogenous in PBMCs of COVID-19 patients)) (UniProt Q96KQ7). Nature of the assay: affinity purification with mass spectrometry.

B1: ribosomal (r)RNA methylase fibrillarin (enzyme, UniProt P22087 1-321)
chain: MKPGFSPRGGGFGGRGGFGDRGGRGGRGGFGGGRGRGGGFRGRGRGGGGGGGGGGGGGRGGGGFHSGGNRGRGRGGKRGNQSGKNVMVEPHRHEGVFICRGKEDALVTKNLVPGESVYGEKRVSISEGDDKIEYRAWNPFRSKLAAAILGGVDQIHIKPGAKVLYLGAASGTTVSHVSDIVGPDGLVYAVEFSHRSGRDLINLAKKRTNIIPVIEDARHPHKYRMLIAMVDVIFADVAQPDQTRIVALNAHTFLRNGGHFVISIKANCIDSTASAEAVFASEVKKMQQENMKPQEQLTLEPYERDHAVVVGVYRPPPKVKN
On to B1, for which the binding result was “binds”.
